In US20150037341A1, “Diagnostic and Therapeutic Method” (Plysackaridforskning i Uppsala AB, priority 2011, published 2015):

Test system: TTR transgenic flies (engineered mutant form of human TTR)
Assay: Transgenic Drosophila TTR-model, flies reared on supplemented medium
Assay type: in vivo, Drosophila melanogaster
Procedure: (A) Eggs of TTR transgenic flies were cultured on regular medium (control) or medium supplemented with low molecular weight heparin (Klexane®) or heparin. Heads were collected 9-17 days posteclosion and lysed in saline. The extract was analyzed by ThT staining. Values represent the average of duplicate experiments. (B) The presence of heparin in the Drosophila head lysate was analyzed with dot-blot stained Alcian blue. Heparin (25 ng and 50 ng) was used as positive control. Twenty-five microliters of the lysate (same samples as used for ThT analysis) was applied to a nylon membrane (Hybond N+, GE Healthcare) and stained with Alcian blue (0.5% Alcian Blue dissolved in 25% isopropanol and 3% acetic acid).
FIG. 14 illustrates the detection of heparin-TTR co-localization in TTR transgenic flies (A-G) Confocal microscopy analysis of cryo-sections prepared from Drosophila heads. (A) Overview image of a Drosophila head stained with DAPI (blue), showing the brain (Br), optical lobes (OI) and retina (Re). […]
The transgenic Drosophila melanogaster strain (Dhet TTR-A) overexpressing a mutant TTR was generated as described (7). […] The fluorescence was measured as described above. Non-TTR-transgenic flies were used as control to subtract background fluorescence. […]

heparin
Alcian blue dot-blot staining of fly head lysate (presence of heparin) (25 microliters of head lysate): Strong staining
TTR and heparin co-staining in head sections (immunohistostaining) (TTR-transgenic flies on heparin-supplemented medium): TTR- and heparin co-staining in the retina
